Values from PubChem BioAssay AID720505 (Drosophila RNAi Screening Center, 2013)
In all, the deposit lists about 20,000 reagents; below is a random part of those that have a named target and a result. Of all reagents, about 2,100 (10%) were called active. 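Raw plate signals without normalisation; calls rest on control-based scores that were not deposited; replicate 2 separates called from uncalled poorly.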 Entries without a mark were called inactive. Names joined by + are all predicted targets of the reagent. Reagent sequences are not shown. Not given: the amount of reagent, the time to read-out.

Purpose: 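Knock-downs that reduce calcium influx once internal stores are emptied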 (primary screen)
Cells: Drosophila S2R+ cells
Reagent: long dsRNA against Drosophila genes
Conditions: thapsigargin (2 µM) in calcium-free buffer to empty internal stores, then 2 mM calcium added back
Detection: 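Fluo-4 signal in 384-well plates read on a FLIPR after thapsigargin (2 µM, calcium-free) store depletion and 2 mM calcium add-back; unnormalised mean endpoint per well; screen run twice, selected wells retested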
Scale: calcium signal and retest calcium signal: higher = more calcium entry after store depletion
Active means: 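About 1500 genes called as lowering calcium entry, by varying amounts, judged against per-plate control wells with STIM1 as positive and Rho1 as negative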
Calls: active = called as lowering calcium entry; inactive = not called

{"Gene": "mxt (GeneID 33686)", "amplicon": "DRSC00551", "calcium signal, replicate 1": 79.7, "calcium signal, replicate 2": 129}
{"Gene": "Hpd (GeneID 40263)", "amplicon": "DRSC11670", "calcium signal, replicate 1": 117, "calcium signal, replicate 2": 91.9}
{"Gene": "ste24c + CR30461 (retired record)", "amplicon": "DRSC05639", "calcium signal, replicate 1": 162, "calcium signal, replicate 2": 88.8}
{"Gene": "ste24c + CR30461 (retired record)", "amplicon": "DRSC07316", "calcium signal, replicate 1": 152, "calcium signal, replicate 2": 135}
{"Gene": "coro (GeneID 35596)", "amplicon": "DRSC05007", "calcium signal, replicate 1": 135, "calcium signal, replicate 2": 91.2}
{"Gene": "coro (GeneID 35596)", "amplicon": "DRSC21417", "calcium signal, replicate 1": 169, "calcium signal, replicate 2": 129}
{"Gene": "Usp15-31 (GeneID 37954)", "amplicon": "DRSC04426", "calcium signal, replicate 1": "57 (active)", "calcium signal, replicate 2": 140}
{"Gene": "Usp15-31 (GeneID 37954)", "amplicon": "DRSC04532", "calcium signal, replicate 1": 125, "calcium signal, replicate 2": 231}
{"Gene": "Polr2G (GeneID 261631)", "amplicon": "DRSC16068", "calcium signal, replicate 1": "70.8 (active)", "calcium signal, replicate 2": 108}
{"Gene": "fit (GeneID 42578)", "amplicon": "DRSC15280", "calcium signal, replicate 1": 285, "calcium signal, replicate 2": 181}
{"Gene": "CG8661 (GeneID 32720)", "amplicon": "DRSC20115", "calcium signal, replicate 1": 88.4, "calcium signal, replicate 2": 103}

Targets above whose target name begins with C or c (3):
{"Gene": "coro (GeneID 35596)", "amplicon": "DRSC05007", "calcium signal, replicate 1": 135, "calcium signal, replicate 2": 91.2}
{"Gene": "coro (GeneID 35596)", "amplicon": "DRSC21417", "calcium signal, replicate 1": 169, "calcium signal, replicate 2": 129}
{"Gene": "CG8661 (GeneID 32720)", "amplicon": "DRSC20115", "calcium signal, replicate 1": 88.4, "calcium signal, replicate 2": 103}

The listing continues.
{"Gene": "TfAP-2 (GeneID 40398)", "amplicon": "DRSC11601", "calcium signal, replicate 1": 90.2, "calcium signal, replicate 2": 241}
{"Gene": "Pex10 (GeneID 38182)", "amplicon": "DRSC08599", "calcium signal, replicate 1": 126, "calcium signal, replicate 2": 89.1, "retest calcium signal, replicate 1": 167, "retest calcium signal, replicate 2": 166}
{"Gene": "Pex10 (GeneID 38182)", "amplicon": "DRSC22021", "calcium signal, replicate 1": 76.8, "calcium signal, replicate 2": 201}
{"Gene": "Mctp (GeneID 37165)", "amplicon": "DRSC06510", "calcium signal, replicate 1": 179, "calcium signal, replicate 2": 151}
{"Gene": "Mctp (GeneID 37165)", "amplicon": "DRSC22896", "calcium signal, replicate 1": 101, "calcium signal, replicate 2": 157}
{"Gene": "CG14304 (GeneID 42232)", "amplicon": "DRSC14783", "calcium signal, replicate 1": 182, "calcium signal, replicate 2": 112}
{"Gene": "CG31013 (GeneID 326111)", "amplicon": "DRSC16542", "calcium signal, replicate 1": 214, "calcium signal, replicate 2": 183}
{"Gene": "iav (GeneID 31621)", "amplicon": "DRSC18363", "calcium signal, replicate 1": 278, "calcium signal, replicate 2": 153}
{"Gene": "CG10053 (GeneID 40871)", "amplicon": "DRSC12502", "calcium signal, replicate 1": 112, "calcium signal, replicate 2": 141}
{"Gene": "CG7252 (GeneID 39353)", "amplicon": "DRSC10789", "calcium signal, replicate 1": 119, "calcium signal, replicate 2": 71.2}
{"Gene": "CG7252 (GeneID 39353)", "amplicon": "DRSC21492", "calcium signal, replicate 1": 171, "calcium signal, replicate 2": 121}
{"Gene": "CG4751 (GeneID 34551)", "amplicon": "DRSC02776", "calcium signal, replicate 1": 88.2, "calcium signal, replicate 2": 103}
{"Gene": "ric8a (GeneID 31874)", "amplicon": "DRSC18093", "calcium signal, replicate 1": 111, "calcium signal, replicate 2": 104}
{"Gene": "CR33013 (GeneID 14462581)", "amplicon": "DRSC06286", "calcium signal, replicate 1": 150, "calcium signal, replicate 2": 223}
{"Gene": "DIP-eta (GeneID 33793)", "amplicon": "DRSC02342", "calcium signal, replicate 1": 130, "calcium signal, replicate 2": 130}
{"Gene": "Vml (GeneID 5740271)", "amplicon": "DRSC18529", "calcium signal, replicate 1": 142, "calcium signal, replicate 2": 107}
{"Gene": "Cpr62Bb (GeneID 38240)", "amplicon": "DRSC08404", "calcium signal, replicate 1": 99.8, "calcium signal, replicate 2": 118}
